These results are taken from PubChem BioAssay AID2685 (National Center for Advancing Translational Sciences (NCATS), 2010).

The experiment can be described thus: qHTS Assay for Lipid Storage Modulators in Drosophila S3 Cells.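 As to cell number change: cells counted by Cell Tracker Red CMTPX staining in the red channel.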 The conditions noted are these: BODIPY lipid droplet fluorescence, 18-24 h; for cell number change: measured here: cell count max response, cells fed with added oleic acid. A digest of the protocol:
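Laser-scanning cytometry quantifies lipid droplet accumulation (500–530 nm total intensity; droplet/cell object ratio) in oleic acid-fed (400 uM added) Drosophila S3 cells treated with a concentration series. 20 uM Triacsin C defined 100% inhibition.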
(In general: In qHTS, concentration-response curves come from the screen itself.)

The mark [1] stands for this setting: measured here: cell number channel AC50, cells fed with added oleic acid.
Setting [2] is: measured here: lipid fluorescence (Fed channel) AC50, cells fed with added oleic acid.

This is one part of the list. Further columns of the screen follow, without active or inactive calls. Compounds called inactive in the main read-out are mostly missing here. Potencies come from curve fits of mixed quality, noted in brackets.

On to `CN(C)c1ncnc2sc(-c3ccccc3)cc12`, for which the cell number change stood at 58.1%. In addition, the AC50 – broadly, the midpoint of the concentration-response curve, whichever way the signal moves – under setting [1] was 29.1 µM [rising, single point].
For the compound `S=C1Cc2ccccc2N1`, the cell number change is -62.2%. Further, the AC50 under setting [1] was 5.8 µM [falling, full curve]. Besides, the AC50 under setting [2] was 5.17 µM [falling, full curve].
As to `O=S(=O)(NCC1CCN(Cc2ccccc2)CC1)c1ccccc1C(F)(F)F`, the cell number change turned out to be 14.6%. In addition, the AC50 under setting [2] is 16.4 µM [rising, single point].
As to `Cc1ccc(O)c(CCc2ccccc2)n1`, the cell number change came out at 4.67%. In addition, under setting [2], the AC50 is 29.1 µM [falling, single point].
`COc1cc(/C=C/C(=O)c2c(O)ccc3c(C)cc(=O)oc23)ccc1O`: the cell number change amounted to 19.7%. The AC50 under setting [1] is 0.731 µM [falling, full curve]. The AC50 under setting [2] was 0.0164 µM [falling, full curve].
With `COC(=O)C1=C(C(=O)OC)[C@@H]2N(Cc3ccccc3)c3ccccc3[C@@]23C[C@@H](C(=O)OC)N(C(=O)c2cccs2)C3=N1`, the cell number change is -46.3%. The AC50 under setting [1] is 29.1 µM [falling, single point]. Also, the AC50 under setting [2] was 18.4 µM [falling, single point].
Consider `C#CCNC(=O)C1=C[C@H](c2csc3ccccc23)[C@@H](CCCO)[C@H](OCC)O1`, for which the cell number change was -10.4%. The AC50 under setting [2] is 29.1 µM [falling, single point].
Take `C=CCOc1ccc(-c2n[nH]c(=S)o2)cc1`: the cell number change worked out at 11.6%.
In the case of `COc1ccc(NC(=O)CSc2nnc(NC(=O)c3ccco3)s2)cc1OC`, the cell number change is -16.5%. Also, under setting [2], the AC50 is 6.51 µM [falling, single point].
In the case of `O=C(Nc1nnc(-c2ccc(Cl)cc2)o1)c1ccccc1Br`, the cell number change was -20.9%. The AC50 under setting [2] was 11.6 µM [falling, single point].
Turning to `C=C(C)CSc1nc(C)c(Cc2ccccc2)c(=O)[nH]1`, the cell number change was determined as 78.8%. The AC50 under setting [1] is 29.1 µM [rising, single point].
For the compound `O=C(Cn1c(SCC(=O)NC2CCCC2)nnc1-c1ccncc1)Nc1ccc2c(c1)OCO2`, the cell number change was -9.74%.
As for `CC1CN(Cc2nc3c(c(=O)n(C)c(=O)n3C)n2Cc2ccccc2)CC(C)O1` (centres undefined), the cell number change worked out at 46.9%. Besides, the AC50 under setting [1] is 29.1 µM [rising, single point]. Besides, under setting [2], the AC50 is 29.1 µM [rising, single point].
As for `CCOC(=O)c1sc(NC(=O)Cc2ccccc2OC)nc1C`, the cell number change is -12.6%. In addition, under setting [2], the AC50 is 6.51 µM [falling, single point].
Consider `O=C(N/N=C/c1ccc(N2CCOCC2)cc1)c1ccccc1NS(=O)(=O)c1cccs1`, for which the cell number change is -17.3%. Further, the AC50 under setting [2] is 25.9 µM [falling, partial curve].
With `Cn1nc(-c2ccccn2)nc2c(=O)n(C)c(=O)nc1-2`, the cell number change is -19.3%. Also, under setting [1], the AC50 is 0.326 µM [falling, full curve, poor fit]. In addition, under setting [2], the AC50 is 0.326 µM [falling, full curve].
Consider `O=C(c1ccc([N+](=O)[O-])cc1)N1CCCC1`, for which the cell number change was -18.5%. Also, the AC50 under setting [2] was 29.1 µM [falling, single point].
Turning to `Cc1c(NC(=S)NC(=O)CSc2ccc(Cl)cc2)cccc1C(=O)O`, the cell number change was -13.9%. Moreover, under setting [2], the AC50 was 29.1 µM [rising, single point].
As to `O=C(Cc1cccc2ccccc12)N1CCN(c2ncccn2)CC1`, the cell number change was 14.7%.
`CC(C)(C)NC(=O)CN(Cc1ccc2c(c1)OCO2)C(=O)CNS(=O)(=O)c1ccc(F)cc1`: the cell number change was determined as 60.3%. Under setting [1], the AC50 is 18.4 µM [rising, partial curve].
Consider `CNC(=O)c1cc(S(=O)(=O)Nc2ccc(C)cc2C)ccc1C`, for which the AC50 under setting [1] is 2.91 µM [rising, partial curve].
As for `COc1cc(N2CCCC2)c(OC)cc1/C=C(/C#N)c1ccc(Br)cc1`, the cell number change was -46.3%. The AC50 under setting [2] is 0.461 µM [rising, full curve].
Turning to `O=[N+]([O-])c1cc(S(=O)(=O)N2CCCC2)ccc1N/N=C/c1cccs1`, the cell number change is -25.2%. For the same compound, the AC50 under setting [1] is 0.651 µM [falling, full curve].
For `Cc1ccc(NC(=O)C2(NC(=O)c3cccc(N4C(=O)CSC4c4ccccc4)c3)CCCCC2)cc1` (centres undefined), the cell number change worked out at 7.73%. Also, the AC50 under setting [2] was 0.231 µM [rising, full curve, poor fit].
Turning to `CCC1Oc2ccccc2N(CC(=O)Nc2ccc(OC)cc2OC)C1=O` (centres undefined), the cell number change worked out at 1.49%. For the same compound, the AC50 under setting [2] is 0.184 µM [rising, full curve, poor fit].
`COC(=O)c1ccc(NS(=O)(=O)NC(=O)c2c[nH]c3ccccc23)cc1`: the cell number change was -2.83%. The AC50 under setting [2] is 18.4 µM [rising, partial curve].
With `CC1(C)CSC(=S)N1S(=O)(=O)c1ccccc1`, the cell number change was -27.4%. Further, the AC50 under setting [1] was 0.651 µM [falling, full curve, poor fit]. For the same compound, the AC50 under setting [2] is 2.31 µM [falling, full curve, poor fit].
With `Cn1c(=O)c2c(nc(CN3CCN(C(=O)c4ccco4)CC3)n2CC(=O)C(C)(C)C)n(C)c1=O`, the cell number change was determined as 0.901%. In addition, under setting [2], the AC50 was 29.1 µM [falling, single point].
With `CC(=O)NC1CCCN(O)C(=O)/C=C(\C)CCOC(=O)C(NC(C)=O)CCCN(O)C(=O)/C=C(\C)CCOC(=O)C(NC(C)=O)CCCN(O)C(=O)/C=C(\C)CCOC1=O` (centres undefined), the cell number change is -40.6%. In addition, the AC50 under setting [1] is 0.231 µM [falling, full curve, poor fit].
Turning to `CNc1ccc(Br)cc(C(=O)/C=C/c2ccc(OC)cc2OC)c1=O`, the cell number change turned out to be 0.874%. For the same compound, under setting [2], the AC50 was 20.6 µM [falling, single point].
Turning to `CC(=O)Nc1ccc(OS(=O)(=O)c2ccccc2C)cc1`, the cell number change is -16.6%. Under setting [2], the AC50 was 0.0291 µM [falling, full curve, poor fit].
Regarding `CC(=O)Oc1ccc(C(=O)Nc2cc(C)ccc2NC(=O)COc2ccccc2)cc1`, the cell number change is -30.3%. In addition, the AC50 under setting [1] is 16.4 µM [falling, single point]. Under setting [2], the AC50 was 20.6 µM [falling, single point].
Take `COC(=O)CCC(=O)NC(=S)Nc1ccc(S(=O)(=O)Nc2cc(OC)nc(OC)n2)cc1`: the cell number change is -46.1%. For the same compound, the AC50 under setting [1] is 20.6 µM [falling, partial curve]. In addition, the AC50 under setting [2] is 13 µM [falling, partial curve].
On to `Cc1ccc(-c2nnn(CC(=O)N(CCO)C(C(=O)NC3CCCCC3)c3ccncc3)n2)o1` (centres undefined), for which the cell number change was 11.1%.
With `CCNc1ccc(S(=O)(=O)N(C)C)cc1[N+](=O)[O-]`, the cell number change was -3.16%. Further, the AC50 under setting [2] was 13 µM [falling, single point].
With `CC(=O)c1sc(NC(=O)CS(=O)(=O)c2ccc(F)cc2)nc1C`, the cell number change worked out at 2.5%.
